Here are results for 1 molecule from paper PMC3507626, “The Crystal Structure of the Intact E. coli RelBE Toxin-Antitoxin Complex Provides the Structural Basis for Conditional Cooperativity” (Structure(London, England:1993), 2012).

The assay addresses Escherichia coli RelB (untagged, intact antitoxin) (Escherichia coli) (UniProt P0C079). The assay is described as follows: crystal structure; RelB2E2 reconstituted from purified RelB and RelE R81A; crystals at 4°C, 1.6-2.0 M ammonium sulfate, 0.1 M Na acetate pH 4.6; space group P6(1)22; 2.8 Å; both purified.

Results are given in words; binding and its absence hold for the method and conditions named. Some results given as binding are weak or reduced against the parent protein; the word gives no strength. Tags and fused reporters may be left off the sequences shown.

B1: Escherichia coli RelB (untagged, intact antitoxin) (natural protein, UniProt P0C079 1-79, looked up)
chain: MGSINLRIDDELKARSYAALEKMGVTPSEALRLMLEYIADNERLPFKQTLLSDEDAELVEIVKERLRNPKPVRVTLDEL
notes: RelB antitoxin of the relBE locus, Escherichia coli, 79 residues (residues 2-79 of 79 seen in the structure); Untagged; Details of purification are in the Supplemental Experimental Procedures; source: E. coli, plasmid pSC2524HE encoding His-tagged RelE R81A and untagged RelB; purified by denaturation, ion exchange, gel filtration
On to B1, for which the binding entry is given as “binds”.
